In PubChem BioAssay AID1347426 (Functional Genomics Laboratory (NCATS/FGL), 2020):
Hit rate of the full screen: of about 31,000 sequences, about 1,400 (4.5%) were called active.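 The calls were made as follows: active = median seed-adjusted z-score above 1 or below -1; inactive = the rest.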 The list shows a part of the results.

assay: Novel Modifiers of Survival Motor Neuron (SMN) Protein: Gene Identification via Genome-wide siRNA Screen; settings: HEK293T SMN2-luciferase reporter, siRNA knockdown, 72 h; actives lie on both sides;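 also: luminescence tracks full-length SMN protein made from the SMN2 reporter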
Method in brief: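 HEK293T cells stably expressing an SMN2 splicing/cDNA-luciferase reporter were reverse-transfected with a druggable-genome siRNA library and read by luminescence at 72 hours; hits defined by MAD score above 1.0 or below -1.0.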

Sequence | median seed-adjusted z-score
GGAUUGAAGGUGUUCACUATT against PZP | inactive: -0.878
ACAAUGAUGUCGAUCUGAUTT against BCKDK | inactive: 0
AGAUACUCACGGACAUUAUTT against COASY | inactive: 0
GCACUUUAGAAUCACACGATT against TRMT6 | inactive: 0.069
GGAGAUCCGUGAUGUAACATT against RUVBL2 | inactive: -0.0764
CACCGAUUCAGGUAUUACATT against PRKRA | inactive: 0.00259
CCAUAUUACAGAGUUCCGATT against ZBTB26 | inactive: 0
GAAUGGUCCUUAUGAACGATT against FAH | inactive: -0.0836
ACAUCAUCAGCAGCCCGAATT against USP32 | inactive: 0.484
CGAACUGAGCAAUAAGGAATT against CBARA1 | inactive: -0.0426
GGAUGAGUACAGAUUUACATT against CLPX | inactive: -0.0436
CCAUUCAAAUGGAGCACGATT against SIGLEC11 | inactive: -0.395
GUCCCGAUCUGUGCUCUGATT against DUSP2 | inactive: 0.576
CCAAUUCUGUUGUAAAUAATT against CITED1 | inactive: 0
GCAAUAGGAUGGAUGAUCATT against GPSM2 | inactive: -0.755
CAUCGUCCACAACUACUCATT against EPN1 | inactive: 0
GGUGGUAAUCAUUACCUUATT against RBKS | inactive: 0.229
GCAUAUCGCUUACGUUCUATT against USP14 | inactive: 0
CAAAGUAUCGGGUCAUCUATT against DMRTA1 | inactive: -0.162
GAACGACAAGGAUCAAGAATT against SCG2 | inactive: 0.155
GUGGGACCCUGAGUACUUATT against MIER1 | inactive: 0.0271
GGAUAUCGCACUUCACUCATT against ELL | inactive: -0.497

Sequence | median seed-adjusted z-score
CGAUGUCUAGAGAACAGCATT against LAMB1 | active: 1.07
GCAGUCCCACAUCAUCUCATT against SLC25A37 | inactive: -0.0821
GCCUGUGAAUGUCCGAGAATT against AARSD1 | inactive: -0.156
CCACGUCUAAAGUCCGAAATT against KIF3C | inactive: 0.0126
GAAGGUUGAUUAUCGUAAATT against BCMO1 | inactive: 0.53
CGAAGCUAGUGGAACAGUATT against SF3A1 | active: -1.09
CACCGAGUGAUGGUCCUUUTT against 2-Mar | inactive: 0.335
GCAGUUGGUGGAGCGAUUATT against USP7 | inactive: 0.105
GCAUUCGAAUUAUAGAACATT against SLC16A14 | inactive: 0.464
CAGAAUAUCUGUUUAAGUUTT against TFDP3 | inactive: -0.135
AGUACGAUCUUGACUUCAATT against ENO3 | inactive: -0.142
GCAUCAAAGCCUUAGACCATT against KLK2 | inactive: 0.0716
GUUAGGUAGUAGAAACAAATT against TCFL5 | active: 1.52
GAAUGGUCUUUGCAUCUGATT against ZNF589 | inactive: -0.0897
GCUGAGUCCUGAUAACCAATT against IFIT3 | inactive: -0.437
GGACUUGACCUAAAGGGUUTT against RFX5 | inactive: 0.432
GGAUAUGAUGGAGCAAAAATT against PRKCI | inactive: 0.386
GAGUUGGGAUGGUUGCAUATT against TUBGCP3 | inactive: -0.685
CAGUUACUCUGGGAGUAUATT against PRPF3 | inactive: -0.289
AGAUCCCACAGACCAAUGUTT against ACP5 | inactive: 0.353
GCAGAACUGCUGCUACAGATT against ANKZF1 | inactive: 0.176
GGUUAACAAUGAGGACUUATT against CACNA2D2 | inactive: -0.702

Sequence | median seed-adjusted z-score
GCGUGUCAAAACUAACGUATT against RALY | inactive: 0
AAAUUCCCGUCAUUGAAAATT against SNRPA1 | active: -2.71
CCAUUGCUAUCACAUGUUUTT against COCH | inactive: -0.524
CAAUGACUGUAAUGGACGATT against RCHY1 | inactive: -0.157
GGCAAUCUCAGGAAAAAUATT against SRD5A3 | inactive: -0.165
GGCGGGAACUGACUGACUATT against FKSG30 | inactive: -0.292
CCAACAUGACCUUCACCAATT against HOMER3 | inactive: 0.148
CACUGUGGAUGGUAUGGGATT against SGCZ | inactive: 0.0893
CAGCUUUACUACUCCCUUUTT against PHOSPHO1 | inactive: -0.296
AGAUUGCUCGGAUCUACAATT against UBE2D2 | inactive: 0.574
GUACGUCCAUUAUGGAGAATT against GPR82 | inactive: -0.83
GAAUCGAUGUAAAAACCGUTT against PTPRO | inactive: 0.387
GGUCAACGAUGACAACCGATT against ITGB4 | inactive: -0.226
UCUGAGAACUUGAGACCUATT against FOXE1 | inactive: -0.316
GCACAUUGGUUUUGGAAUUTT against MS4A12 | inactive: -0.881
GCAUCGUAUCAGCAUCUAUTT against BRPF3 | inactive: -0.615
CCGUGAAACAUGACUCCAATT against SEMA6B | inactive: 0.311
CAGACUGAAGGGUUCCGAATT against MLH3 | inactive: 0.228
GCAACUUUCCACUUUCGAATT against ZNF280B | inactive: 0.113
CCACCUACACUUUAGACAATT against ZNF197 | inactive: -0.219
AGACCUGACUGUUAUCACATT against OPLAH | inactive: -0.233
AGUUCACUAAGUUAUGCAATT against GJB3 | inactive: -0.198

Sequence | median seed-adjusted z-score
AGACAGAGCAGAUCCGCAATT against PROKR1 | inactive: -0.507
GGACUUCAAGGCAUACGAATT against FOXA1 | inactive: 0.279
CCGUGGAUGAGGUAUUCAATT against PLCL2 | inactive: 0.393
GAAUCCGGAUCAUUCUAGATT against PIAS1 | inactive: -0.0367
GGCUCCAUCUGGUCAGAAUTT against FOXP4 | inactive: 0.588
GCUAGAUUAUCGUCCAAAATT against FAS | inactive: -0.377
CUUCAACUGUCUACAAUUATT against ABP1 | inactive: -0.241
CGAGACCGCUACAACCACATT against GPR4 | inactive: 0.563
GCUACUGUCUCAACGGAUATT against NPNT | inactive: 0.164
CAACGACUACAGGUCUGUATT against ITGA11 | inactive: 0.496
GGGCUCCAUUCAUUCAACATT against KLK15 | inactive: 0
GGAUAAUAGCAAAUAUCAUTT against FCRL3 | inactive: -0.642
GCUUGGAGCUCAACACCGUTT against ONECUT3 | inactive: -0.653
GCAAUGUUAUCAUCACCCATT against DHX30 | inactive: 0.335
AGUAUAAGCCUGCAGUUAATT against AKR1B1 | inactive: 0.0107
CCUGGAUCAUAUUCACAGATT against RAGE | inactive: -0.154
GGCAAAGGCAAAUUGAGGATT against HRH1 | inactive: 0.204
CCACGGGAAAGAUCGUGUATT against SLC6A8 | inactive: -0.0673
GCUCAACUCUUAUUAGUCATT against ZNF485 | inactive: 0.445
GCACCAUCUUCAGCGAAGATT against GSC2 | inactive: -0.0829
GGCUAACAAUGGUACCGAUTT against CREB1 | inactive: 0.391
CAGGUUUACUGCUAAACCATT against KIF2A | inactive: 0.289

Sequence | median seed-adjusted z-score
AGCUUCGUCUACAUCCUUATT against KCNK3 | inactive: 0
GCUGCAACCUUGACUACUATT against RRM1 | active: -5.51
GUAUCCACUUCAUCAUUAATT against GTF2IRD1 | inactive: -0.282
GGAAAAAUGAUUCAACCCATT against TRHR | inactive: -0.873
GGCAAAACCUGAUGAAUUATT against VAPA | inactive: -0.623
GCAGAAAUAUGACCAUGCATT against NMT1 | inactive: 0.18
GGACCAGACAACGAACUGATT against RNF135 | inactive: 0.581
CCACCUUUGUUGUCUGCAATT against TCEA2 | inactive: 0.552
GUGCCUAAGUCUUUAGUUUTT against IFI35 | inactive: 0.105
GAAGGACACUUAUAGGCUUTT against LSM1 | inactive: 0
AGCCCGUCGUCUACUUCUGTT against MRGPRE | inactive: -0.65
GCAACAUCUUUAAGCAGUUTT against ZNF195 | inactive: 0.0753
GUCGAGCAAUAGGCAAUAATT against MAP3K7IP2 | inactive: 0.0195
CAUCUUCUAUGGGAUGAUUTT against AMDHD2 | inactive: -0.0707
GCAGUACUCUGGAAUAUAUTT against SLC25A24 | inactive: -0.0384
CGGGCGAGUUUACUAUGUATT against ITCH | inactive: 0.199
UCGAUGCUCUCACCACGCATT against PRSSL1 | inactive: -0.221
CGUCGACUAUGGAGACAGATT against TSSK1B | inactive: -0.169
AGCAUGUGGUAGACGAGAATT against RGS19 | inactive: 0.295
AACACGUUCUGGAAAAUAATT against HDDC3 | inactive: 0.549

Part of the list above, reformatted.
GGCAAAACCUGAUGAAUUATT against VAPA
  median seed-adjusted z-score: inactive: -0.623
GCAGAAAUAUGACCAUGCATT against NMT1
  median seed-adjusted z-score: inactive: 0.18
CAUCUUCUAUGGGAUGAUUTT against AMDHD2
  median seed-adjusted z-score: inactive: -0.0707

Rewritten as comma-separated lines: entries from further up.
Sequence,median seed-adjusted z-score
GCUAGAUUAUCGUCCAAAATT against FAS,inactive: -0.377
CUUCAACUGUCUACAAUUATT against ABP1,inactive: -0.241
CGAGACCGCUACAACCACATT against GPR4,inactive: 0.563
GCUACUGUCUCAACGGAUATT against NPNT,inactive: 0.164
